No constants are given. Whether binding was seen depends on the method and setting. Some binding calls cover weakened binding; strength is not graded here. For some of these results: Sequences can lack the tags named with a protein.
T1: Human B7-H4 ECD-Flag-His10 (monomeric) (human) (UniProt Q7Z7D3)
T1 sequence: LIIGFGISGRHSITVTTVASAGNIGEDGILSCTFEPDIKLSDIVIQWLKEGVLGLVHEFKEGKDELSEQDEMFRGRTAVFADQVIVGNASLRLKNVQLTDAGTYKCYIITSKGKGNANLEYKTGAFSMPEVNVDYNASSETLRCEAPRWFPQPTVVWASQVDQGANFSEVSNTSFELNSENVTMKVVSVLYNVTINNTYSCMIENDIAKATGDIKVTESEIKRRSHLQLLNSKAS

Protein sequences, listed by entry. Tags and fused reporters are not part of them.
UniProt Q9NZQ7: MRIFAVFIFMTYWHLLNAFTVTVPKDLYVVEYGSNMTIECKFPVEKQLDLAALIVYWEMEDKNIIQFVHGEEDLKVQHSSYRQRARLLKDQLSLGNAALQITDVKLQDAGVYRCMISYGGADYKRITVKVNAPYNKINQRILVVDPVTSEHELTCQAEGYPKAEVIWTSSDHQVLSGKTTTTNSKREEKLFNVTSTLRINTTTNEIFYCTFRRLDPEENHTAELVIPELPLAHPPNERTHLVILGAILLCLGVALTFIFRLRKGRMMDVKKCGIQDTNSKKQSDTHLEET

T2: Murine B7-H4 ECD-Flag-His10 (monomeric) (mouse) (UniProt Q7TSP5)
T2 sequence (looked up): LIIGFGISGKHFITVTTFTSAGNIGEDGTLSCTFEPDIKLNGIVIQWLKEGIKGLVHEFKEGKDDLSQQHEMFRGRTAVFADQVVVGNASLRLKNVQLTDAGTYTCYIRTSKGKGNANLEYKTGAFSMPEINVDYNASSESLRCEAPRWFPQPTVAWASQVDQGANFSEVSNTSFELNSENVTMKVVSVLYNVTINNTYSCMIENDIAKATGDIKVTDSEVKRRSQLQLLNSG

T3: recombinant mouse B7-H4 (tag format not stated) (mouse) (UniProt Q7TSP5)
T3 sequence (looked up): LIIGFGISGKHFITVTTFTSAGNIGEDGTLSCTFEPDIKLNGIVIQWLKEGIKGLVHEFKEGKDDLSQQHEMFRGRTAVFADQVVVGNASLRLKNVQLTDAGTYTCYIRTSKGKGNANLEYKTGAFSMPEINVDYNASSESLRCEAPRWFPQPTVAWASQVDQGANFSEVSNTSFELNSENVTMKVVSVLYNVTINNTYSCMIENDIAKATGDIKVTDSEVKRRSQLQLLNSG


How the values were obtained:
[1] = molecular target: T1, Human B7-H4 ECD-Flag-His10 (monomeric) (human); test: ELISA
[2] = molecular target: T2, Murine B7-H4 ECD-Flag-His10 (monomeric) (mouse); test: ELISA
[3] = molecular target: T1, Human B7-H4 ECD-Flag-His10 (monomeric) (human); test: ELISA, absorbance 450 nm; x axis printed as antigen concentration (µg/ml)
[4] = molecular target: T2, Murine B7-H4 ECD-Flag-His10 (monomeric) (mouse); test: as above
[5] = molecular target: T1, Human B7-H4 ECD-Flag-His10 (monomeric) (human); test: ELISA, absorbance 450 nm, antigen human B7-H4(ECD) F10H; x axis Antigen Conc. (µg/ml)
[6] = molecular target: human B7-H4 on cells (human) (UniProt Q7Z7D3); test: on-cell western, OVCAR4 cells
[7] = molecular target: human B7-H4 on cells (human) (UniProt Q7Z7D3); test: on-cell western (Odyssey) on fixed cells, with and without transfection with full length B7-H4 vector
[8] = molecular target: recombinant cynomolgus monkey B7-H4 (tag format not stated) (cynomolgus monkey); test: ELISA, Maia format mAb (GLQ)
huB7-H1 (human) = huB7-H1 (human) (UniProt Q9NZQ7); test: ELISA, absorbance 450 nm, Human B7H1 (ECD) F10H; x axis printed as antigen concentration (nM)
[9] = molecular target: recombinant cynomolgus monkey B7-H4 (tag format not stated) (cynomolgus monkey); test: ELISA, Maia format mAb (GLY)
[10] = molecular target: recombinant cynomolgus monkey B7-H4 (tag format not stated) (cynomolgus monkey); test: ELISA, Maia format mAb
[11] = molecular target: recombinant human B7-H4 (tag format not stated) (human) (UniProt Q7Z7D3); test: ELISA, Maia format mAb
[12] = molecular target: T3, recombinant mouse B7-H4 (tag format not stated) (mouse); test: ELISA, Maia format mAb

| Binder | binding [1] | binding [2] | binding [3] | binding [4] | binding (huB7-H1 (human)) | further results |
| --- | --- | --- | --- | --- | --- | --- |
| ZY0EQD-E02 human IgG1-TM (antibody, V domains shown) VH: QVQLQQWGAGLLKPSETLSLTCAVYGGSFSGYYWNWIRQPPGKGLEWIGEINHSGSTSYNPSLKSRVTISVDTSKNQFSLKLSSVTAADTAVYYCARVLYNWNVDSWGQGTLVTVSS VL: DIQMTQSPSSLSASVGDRVTITCRASQDIRNDVGWYQQKPGKAPKRLIYAASRLQSGVPSRFSGSGSGTEFTLTISSLQPEDFATYYCLQHNSYPRTFGQGTKVEIK | binds | binds | binds | binds |  |  |
| ZY0EQD-E02 murine IgG1 (antibody, V domains shown) VH: QVQLQQWGAGLLKPSETLSLTCAVYGGSFSGYYWNWIRQPPGKGLEWIGEINHSGSTSYNPSLKSRVTISVDTSKNQFSLKLSSVTAADTAVYYCARVLYNWNVDSWGQGTLVTVSS VL: DIQMTQSPSSLSASVGDRVTITCRASQDIRNDVGWYQQKPGKAPKRLIYAASRLQSGVPSRFSGSGSGTEFTLTISSLQPEDFATYYCLQHNSYPRTFGQGTKVEIK | binds | binds | binds | binds |  | binding [5]: binds |
| ZY0EQD-E02 (isotype format not stated) (antibody, V domains shown) VH: QVQLQQWGAGLLKPSETLSLTCAVYGGSFSGYYWNWIRQPPGKGLEWIGEINHSGSTSYNPSLKSRVTISVDTSKNQFSLKLSSVTAADTAVYYCARVLYNWNVDSWGQGTLVTVSS VL: DIQMTQSPSSLSASVGDRVTITCRASQDIRNDVGWYQQKPGKAPKRLIYAASRLQSGVPSRFSGSGSGTEFTLTISSLQPEDFATYYCLQHNSYPRTFGQGTKVEIK |  |  |  |  |  | binding [6]: binds; binding [7]: binds |
| E02-GLQ-maia (antibody, human IgG1, kappa, V domains shown) VH: QVQLQQWGAGLLKPSETLSLACTVYGGSFSGYYWNWIRQPPGKGLEWIGEIQHSGSTSYNPSLKSRVTISVDTSKNQFSLKLSSVTAADTAVYYCARVLYNWNVDSWGQGTLVTVSS VL: DIQMTQSPSSLSASVGDRVTITCRASQDIRNDVGWYQQKPGKAPKRLIYAASRLQSGVPSRFSGSGSGTEFTLTISSLQPEDFATYYCLQHNSYPRTFGQGTKVEIKR |  |  |  |  | no binding (tested: about 600 nM (antigen)) | binding [8]: binds |
| E02-GLY-maia (antibody, human IgG1, kappa, V domains shown) VH: QVQLQQWGAGLLKPSETLSLACTVYGGSFSGYYWNWIRQPPGKGLEWIGEIYHSGSTSYNPSLKSRVTISVDTSKNQFSLKLSSVTAADTAVYYCARVLYNWNVDSWGQGTLVTVSS VL: DIQMTQSPSSLSASVGDRVTITCRASQDIRNDVGWYQQKPGKAPKRLIYAASRLQSGVPSRFSGSGSGTEFTLTISSLQPEDFATYYCLQHNSYPRTFGQGTKVEIKR |  |  |  |  | no binding (tested: about 600 nM (antigen)) | binding [9]: binds |
| E02-maia (ZY0EQD_E02, wildtype, Maia format human IgG1) (antibody, V domains shown) VH: QVQLQQWGAGLLKPSETLSLTCAVYGGSFSGYYWNWIRQPPGKGLEWIGEINHSGSTSYNPSLKSRVTISVDTSKNQFSLKLSSVTAADTAVYYCARVLYNWNVDSWGQGTLVTVSS VL: DIQMTQSPSSLSASVGDRVTITCRASQDIRNDVGWYQQKPGKAPKRLIYAASRLQSGVPSRFSGSGSGTEFTLTISSLQPEDFATYYCLQHNSYPRTFGQGTKVEIKR |  |  |  |  | no binding (tested: about 600 nM (antigen)) | binding [10]: binds; binding [11]: binds; binding [12]: binds |
